No constants are given. Whether binding was seen depends on the method and setting. In cells and extracts the contact can be indirect. Binding calls can cover weak binding; strength is not graded here.

For experiment [1], the target named is T1, full-length AMP deaminase 3 (AMPD3), rat, 90 kDa (rat (endogenous in NRCMs, H9c2 cells and rat heart)) (UniProt O09178).
T1 sequence: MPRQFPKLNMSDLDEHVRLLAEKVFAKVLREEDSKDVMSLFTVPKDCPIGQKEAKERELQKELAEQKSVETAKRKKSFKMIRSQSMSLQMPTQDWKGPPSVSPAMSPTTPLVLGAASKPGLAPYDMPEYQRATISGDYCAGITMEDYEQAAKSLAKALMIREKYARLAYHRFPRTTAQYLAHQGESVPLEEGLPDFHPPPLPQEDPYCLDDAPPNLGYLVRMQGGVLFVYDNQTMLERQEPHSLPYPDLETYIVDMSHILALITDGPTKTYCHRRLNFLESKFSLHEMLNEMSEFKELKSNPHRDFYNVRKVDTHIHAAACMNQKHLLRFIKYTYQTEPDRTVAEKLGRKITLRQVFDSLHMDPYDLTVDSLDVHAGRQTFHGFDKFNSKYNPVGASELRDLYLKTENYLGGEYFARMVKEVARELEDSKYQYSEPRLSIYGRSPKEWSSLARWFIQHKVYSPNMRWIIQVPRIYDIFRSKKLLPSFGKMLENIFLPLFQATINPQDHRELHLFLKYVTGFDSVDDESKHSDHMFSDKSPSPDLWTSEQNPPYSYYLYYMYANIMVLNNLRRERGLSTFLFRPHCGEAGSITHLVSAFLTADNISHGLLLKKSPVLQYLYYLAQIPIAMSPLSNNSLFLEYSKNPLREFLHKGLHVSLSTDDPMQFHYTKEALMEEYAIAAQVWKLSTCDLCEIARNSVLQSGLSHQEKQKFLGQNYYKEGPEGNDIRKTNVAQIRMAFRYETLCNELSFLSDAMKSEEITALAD
The experiment can be described thus: co-IP; anti-AMPD3 immunoprecipitation of lysate of H9c2 cardiomyoblasts with or without E1α knocked down (siRNA); immunoblotting. In general terms: A western blot detects proteins with antibodies after separation by electrophoresis.

The target of experiment [2] is T1, full-length AMP deaminase 3 (AMPD3), rat, 90 kDa (rat (endogenous in NRCMs, H9c2 cells and rat heart)). Put plainly: co-IP; anti-AMPD3 immunoprecipitation of NRCM lysate (500 μg), rabbit control IgG as control; IP buffer 150 mM NaCl, 10 mM Tris-HCl pH 7.4, 1% Triton X-100, 0.5% NP-40, 4°C overnight; immunoblotting.

“E2 subunit of branched-chain α-keto acid dehydrogenase (BCKDH), rat”: the binding entry in experiment [1] and in experiment [2] was “binds” throughout.
